Experimental data reported in PubChem BioAssay AID588590 (National Center for Advancing Translational Sciences (NCATS), 2011).
About 4,000 (1%) of roughly 390,000 compounds were called active. This list was built around the results that the source calls inconclusive (neither active nor inactive); the mix of calls is not that of the screen. Calls follow the shape of the dose curve; as a rule, active = well fitted inhibition curve with a large enough effect; inconclusive = small, poorly fitted or top-dose-only effect, or another doubt; inactive = no such curve, though single readings can be large or run the other way. A potency beside an inconclusive call is a rough fit, not a confirmed value.

Protein sequences, listed by entry. Tags and fused reporters are not part of them. Lines headed by an entry give the natural chain unless they say otherwise; changes in a name come on top.
UniProt Q9UNA4: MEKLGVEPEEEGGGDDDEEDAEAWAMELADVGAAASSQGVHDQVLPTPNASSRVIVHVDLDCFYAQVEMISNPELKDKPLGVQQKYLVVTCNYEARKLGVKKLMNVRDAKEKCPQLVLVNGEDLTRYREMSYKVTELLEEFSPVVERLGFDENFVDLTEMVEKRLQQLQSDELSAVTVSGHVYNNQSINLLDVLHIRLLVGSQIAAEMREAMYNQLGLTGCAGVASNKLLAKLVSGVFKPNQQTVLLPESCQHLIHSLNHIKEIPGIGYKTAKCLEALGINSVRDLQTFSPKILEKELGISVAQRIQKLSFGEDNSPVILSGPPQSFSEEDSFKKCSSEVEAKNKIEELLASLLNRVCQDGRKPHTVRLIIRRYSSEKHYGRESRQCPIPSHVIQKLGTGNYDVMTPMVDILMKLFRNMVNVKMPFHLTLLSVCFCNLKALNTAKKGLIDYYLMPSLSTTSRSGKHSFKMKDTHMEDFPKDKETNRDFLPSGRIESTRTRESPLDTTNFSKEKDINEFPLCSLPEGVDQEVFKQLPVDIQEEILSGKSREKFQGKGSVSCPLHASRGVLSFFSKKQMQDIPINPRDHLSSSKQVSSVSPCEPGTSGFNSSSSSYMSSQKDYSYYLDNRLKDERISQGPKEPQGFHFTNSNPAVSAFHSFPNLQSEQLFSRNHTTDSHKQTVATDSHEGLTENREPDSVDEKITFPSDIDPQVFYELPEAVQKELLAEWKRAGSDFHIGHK

Target: DNA polymerase iota (Homo sapiens) (UniProt Q9UNA4)
Assay: qHTS for Inhibitors of Polymerase Iota
Conditions: Pol iota fluorescent replication assay, 10 min; series mostly up to 115 µM; activity, negative = inhibition: at the top concentration
In short: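 Fluorescent replication assay read twice, at 0 min and 10 min after adding 50 nM (final) substrate. Enzyme (10 nM) and compounds were first incubated 15 min at room temperature; enzyme-free buffer wells were negative controls.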
Potency is read from the fitted curve at half-maximal effect.

Potency, active:
O=C(O)c1cc(-c2ccc(/C=C3/SC(=S)N(Cc4ccccc4)C3=O)o2)ccc1Cl 12.6 µM, O=C(c1ccccc1)c1ccc2nc(N3CCN(C(=O)c4ccco4)CC3)c3nncn3c2c1 79.4 µM, O=C(NN1C(=O)/C(=C/C=C/c2ccco2)SC1=S)c1ccncc1 1.26 µM

Potency, inconclusive:
COc1cc(CCN2C(=O)c3cccc4cccc(c34)C2=O)c(S(=O)(=O)NCCCO)cc1OC 39.8 µM [inhibitor, full curve, poor fit], CC(C)Oc1ccc(/C(O)=C2/C(=O)C(=O)N(Cc3cccnc3)C2c2ccco2)cc1 (stereo not drawn) 1.41 µM [inhibitor, full curve, poor fit], CCn1c(SCC(=O)N/N=C/c2ccc(OC)c(OC)c2)nc2ccccc21 112 µM [inhibitor, single point], CCc1ccccc1NC(=O)c1cc(-c2ccc(F)cc2)on1 5.01 µM [inhibitor, full curve, poor fit], CC1(C)Cc2nc3sc4c(=O)n(CC(=O)NCc5ccco5)cnc4c3cc2CO1 79.4 µM [inhibitor, partial curve, poor fit], O=C(Nc1ccccc1Br)c1cnn2c1NC(=C1CC1)C=C2C(F)F 79.4 µM [inhibitor, partial curve], CCOc1ccc(C(=O)CCC(=O)Nc2ncccc2O)cc1 28.2 µM [inhibitor, partial curve, poor fit], CCCCCSc1nnc2c(n1)OC(C)N(C(C)=O)c1ccccc1-2 (stereo not drawn) 17.8 µM [inhibitor, partial curve, poor fit], CC1=C(C(=O)OCc2ccccc2)C(c2ccccc2OS(=O)(=O)c2ccc(C)cc2)NC(=O)N1CCCC(=O)O (stereo not drawn) 70.8 µM [inhibitor, partial curve, poor fit], Cc1ccc(OC(=O)CSc2nnc(-c3cccs3)o2)cc1C 89.1 µM [inhibitor, single point], COc1ccc(CCNC(=O)/C=C/c2ccco2)cc1OC 20 µM [inhibitor, partial curve, poor fit], O=C1CC(/C=C/c2ccco2)=Nc2ccccc2N1 15.8 µM [inhibitor, full curve, poor fit], O=C(Nc1ccccc1C(=O)N1CCCC1)c1ccccc1 89.1 µM [inhibitor, single point], O=C(CC1C[C@H](C(=O)N2CCOCC2)[C@@]2(CCC3CCCC3)c3[nH]c4ccccc4c3CCN2C1=O)NCCCn1ccnc1 (stereo partly drawn) 89.1 µM [inhibitor, single point], Cc1ccc(C(=O)Cn2c(C)cc(C)c(C#N)c2=O)cc1 2.24 µM [inhibitor, full curve], O=C(NCCCn1ccnc1)Nc1ccc(Cl)cc1Cl 3.16 µM [inhibitor, partial curve, poor fit], Cc1nn(C)cc1/C=N/NC(=S)Nc1ccc(Cl)cc1Cl 50.1 µM [inhibitor, partial curve, poor fit], Cc1ncc([N+](=O)[O-])n1S(=O)(=O)c1cc(Br)ccc1Br 12.6 µM [inhibitor, partial curve], C(=N\N1CCOCC1)/c1ccsc1 79.4 µM [inhibitor, single point], CS(=O)(=O)c1ccc2nc(NC(=O)CCS(=O)(=O)c3ccccc3)sc2c1 100 µM [inhibitor, partial curve, poor fit], CCN(CC)C(=O)c1sc(NC(=O)c2cc(-c3ccc(C)s3)nc3ccccc23)c(C(=O)OC)c1C 14.1 µM [inhibitor, partial curve, poor fit], CCn1c(SCC(=O)Nc2oc(-c3ccccc3)c(-c3ccccc3)c2C#N)nnc1-c1ccncc1 31.6 µM [inhibitor, single point], COc1ccc(Br)cc1/C=N/N1C(=O)CSC1=S 31.6 µM [inhibitor, single point], Cc1occc1C(=O)N1CCN(Cc2ccccc2)CC1 89.1 µM [inhibitor, partial curve, poor fit], O=C(CCCCCNC(=O)c1ccccc1)N/N=C/c1ccco1 50.1 µM [inhibitor, single point], COc1ccccc1NC(=O)CCS(=O)(=O)c1cc2c3c(c1)CCN3C(=O)CC2 89.1 µM [inhibitor, single point], Cc1ccc(NC(=O)Nc2cccs2)c(Cl)c1 44.7 µM [inhibitor, single point], NC(=O)[C@@H]1CC2(CC(c3cccc(NC(=O)CC(c4ccccc4)c4ccccc4)c3)=NO2)CN1C(=O)COc1ccc(Cl)cc1 (stereo partly drawn) 17.8 µM [inhibitor, full curve, poor fit], Cc1cc(C)nc(N2N=C(c3ccccc3)CC2=O)n1 17.8 µM [inhibitor, partial curve, poor fit], O=C1c2oc3ccc(F)cc3c(=O)c2C(c2ccc(F)cc2)N1CCCN1CCOCC1 (stereo not drawn) 39.8 µM [inhibitor, single point], Nn1c(SCC(=O)Nc2nccs2)nnc1-c1cccnc1 25.1 µM [inhibitor, full curve, poor fit], CC1CCCC(C)N1/N=C/c1ccc(O)c(O)c1 (stereo not drawn) 25.1 µM [inhibitor, partial curve, poor fit], COc1ccc(C2CC(c3ccccc3OC(C)=O)=NN2C(C)=O)cc1 (stereo not drawn) 39.8 µM [inhibitor, partial curve, poor fit], O=Cc1[nH]c2ccccc2c1N(C(=O)CCl)c1ccccc1 22.4 µM [inhibitor, partial curve, poor fit], O=C(O)CCCCCNS(=O)(=O)c1ccc2c3c(cccc13)C(=O)N2 15.8 µM [inhibitor, full curve, poor fit], CC(C)c1ccc2c(c1)-c1ccccc1S(=O)(=O)N2CC(=O)N1CCCCC1 100 µM [inhibitor, single point], CCC(=O)N/C(=N\OCc1ccc(F)cc1)c1nonc1NC(=O)CC 12.6 µM [inhibitor, full curve, poor fit], CCn1nc(C)c(CCN(C)C(=O)Nc2cc(C)cc(C)c2)c1C 89.1 µM [inhibitor, single point], COc1ccccc1C1/C(=C(\O)c2ccc3c(c2)OCCO3)C(=O)C(=O)N1CCCn1ccnc1 (stereo not drawn) 25.1 µM [inhibitor, single point], COC(=O)[C@]1(C)N[C@H](CN(C)C(=O)c2ccc(C)cc2)[C@@H]2C(=O)N(Cc3ccccc3)C(=O)[C@@H]21 56.2 µM [inhibitor, partial curve, poor fit], Cc1ccc(C(C)C)c(OCc2ccc(C(=O)N/N=C/c3ccc(C(=O)O)cc3)cc2)c1 50.1 µM [inhibitor, partial curve, poor fit], COc1ccc(-c2cc(C(C)=O)c(C)n2CCC(=O)Nc2ccc(C(F)(F)F)cc2)cc1 70.8 µM [inhibitor, single point], O=C(CN1C(=O)C2CC=C(Cl)CC2C1=O)NCc1ccccc1 (stereo not drawn) 112 µM [inhibitor, partial curve, poor fit], COc1ccc(CNC(=O)c2cc3c(=O)n4ccccc4nc3n(Cc3cccnc3)c2=N)cc1 25.1 µM [inhibitor, full curve, poor fit]

activity, negative = inhibition, inactive:
Cc1onc(-c2ccccc2)c1C(=O)NCc1ccccn1 -5.41%, C=CCOc1ccc(-c2nc3c(c(=O)[nH]c(=O)n3CCCC)n2C)cc1OC 37.3%, COc1ccc(Cl)cc1NC(=O)Cn1nc(Cc2ccncc2)c2ccccc2c1=O 37.9%, Cc1ccc(/C=c2/sc3n(c2=O)CCCN=3)o1 -7.28%, O=C(NCC1CCN(Cc2cccc(Cl)c2)CC1)c1cc2ccc3cccnc3c2[nH]1 16.4%, Cc1ccc(C)c(N2CCN(C(=O)CCn3c(=O)c4cccn4c4cccnc43)CC2)c1 11.6%, O=C(/C=C/c1ccccc1[N+](=O)[O-])N1CCc2ccccc2C1 13.5%, O=C(NCCN1C(=O)S/C(=C/c2cccnc2)C1=O)c1ccc(S(=O)(=O)N2CCCC2)cc1 -6.84%, CCOc1ccc(C(=O)NCCn2cc(SCC(=O)Nc3ccccc3)c3ccccc32)cc1 -12.2%, OCCN1CCN(c2ncnc3c2c(-c2ccccc2)cn3-c2ccc(F)cc2)CC1 153%, C#CCOCCOCCOCCNc1nc(N2CCN(C(=O)Cn3cc(CCCCN)nn3)CC2)nc(N2CCN(C(=O)Cn3cc(CC(C)O)nn3)CC2)n1 (stereo not drawn) 22.5%, Cn1c(=O)cc(SCC(=O)N2CCN(c3ccccc3F)CC2)c2cc(Cl)ccc21 22.9%, O=C(CSc1ncc(-c2ccccc2)[nH]1)Nc1cccc(C(F)(F)F)c1 11.3%, CCN(CC)c1ccc(NC(=O)c2ccco2)cc1 34.6%, CC12CCC(=O)C=C1CCC1C2CCC2(C)C(c3csc(N)n3)CCC12 (stereo not drawn) 43.3%, CC(C)(C)c1ccc(C(=O)O/N=C(\N)c2ccccn2)cc1 53.5%
